From PubChem BioAssay AID1347075 (National Center for Advancing Translational Sciences (NCATS), 2019)
In all, about 400,000 compounds went through this assay and about 5,500 (1.4%) were called active. The inconclusive results got no clear call from the source; some entries with a clear call stand among them for comparison. Calls follow the shape of the dose curve; as a rule, active = well fitted cell-killing curve with a large enough effect; inconclusive = small, poorly fitted or top-dose-only effect, or effect the other way; inactive = flat fitted curve, though single readings scatter. Where the call is inconclusive, the potency comes from a doubtful curve fit.

Test: qHTS assay for MDR1-selective chemotherapeutics: Primary screen using the parental adenocarcinoma cell KB-3-1; also: nearly all actives have a fitted effect of over 60% in size
Conditions: KB-3-1 viability, CellTiter-Glo ATP luminescence, 72 h; activity change, negative = cytotoxic: at 46.1 µM (top of the series)
Summary of the method: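 KB-3-1 cells, DMEM (no phenol red) + 10% FBS; compound by pin transfer, 72 h, 37 °C. Readout: CellTiter-Glo luminescence after 10 min. Data normalized, curve-fitted.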
% is scaled to controls: 0 for no effect and ±100 for the full control effect; potency is read from the fitted curve at half-maximal effect.

Row | Structure (SMILES) | Potency | activity change, negative = cytotoxic
1 | Cc1ccc(/C=C/C(=O)c2ccccc(=O)c2O)cc1C | active: 9.2 µM | 
2 | CCOC(=O)C1=C(CN2CCC(C)CC2)NC(=O)NC1c1ccc(OC(C)C)cc1 (stereo not given) | inactive | 
3 | CCN1CCN(c2ncc3c(n2)CC(c2ccc(OC)c(OC)c2)CC3=O)CC1 (stereo not given) | active: 16.4 µM | 
4 | Cc1cc2nc(C3CCN(Cc4nnnn4Cc4cccs4)CC3)[nH]c2cc1C | inconclusive: 8.91 µM [cytotoxic, partial curve] | 
5 | COc1cc([N+](=O)[O-])ccc1NC(=S)Nc1cc(C(=O)OC(C)C)cc(C(=O)OC(C)C)c1 | inconclusive: 18.4 µM [cytotoxic, single point] | 
6 | Cc1cccc(CN2CCN(CC(=O)NCCCN3CCN(c4ccc(F)cc4)CC3)C2=O)c1 | inconclusive: 1.84 µM [cytotoxic, full curve] | 
7 | COc1ccc(-c2ccc(SCC(=O)c3cccs3)nn2)cc1 | inconclusive: 23.1 µM [cytotoxic, single point] | 
8 | C[C@H](CO)N1C[C@H](C)[C@@H](CN(C)Cc2ccccc2)Oc2c(NS(=O)(=O)c3cn(C)cn3)cccc2C1=O |  | inconclusive: 4.28%
9 | CC(C)C[C@@H](CN1CCCC1CN1C(=S)NC[C@@H]1Cc1ccccc1)N1C[C@H](Cc2ccc(O)cc2)N(CCc2ccccc2)C1=S (stereo not given in full) | inconclusive: 29.1 µM [cytotoxic, single point] | 
10 | COc1cc(C2NC(=O)NC(C)=C2C(=O)OCc2ccc(C)cc2)cc(OC)c1O (stereo not given) | inactive | 
11 | Cc1c(Cc2ccccc2)c(=O)oc2c(CN(C)C)c(O)c(Cl)cc12 | inconclusive: 11.6 µM [cytotoxic, partial curve] | 
12 | CCOc1ccc(C(=O)N2CC(=O)Nc3ccc(C)cc3C2c2ccc(F)cc2)cc1OCC (stereo not given) | inactive | 
13 | COCCCNC(=O)CCCn1c(SCC(=O)c2ccc(Br)cc2)nc2c(sc3ccccc32)c1=O | inactive | 
14 | CCOC(=O)c1c(C)n(C)c2ccc(OCCN(C)C)cc12 | inconclusive: 29.1 µM [rising, single point] | 
15 | Cc1ccc2nc(-c3ccc(NC(=O)CN4C(=O)NC(C)(c5ccc(OC(F)F)cc5)C4=O)cc3)sc2c1 (stereo not given) | inconclusive: 25.9 µM [cytotoxic, partial curve, poor fit] | 
16 | COc1ccc(OCC(=O)Nc2cccc3ncccc23)cc1 | inactive | 
17 | COC(=O)c1ccc(CNC(=O)Cn2cnc3c(SC)nc(N)nc32)cc1 | inconclusive: 29.1 µM [cytotoxic, single point] | 
18 | CCCCc1c(CCC)c(=N)c2ccccc2n1C | inconclusive: 14.6 µM [cytotoxic, partial curve] | 
19 | CCOC(=O)/C=c1/s/c(=C/c2ccccc2OC)c(=O)n1CC(=O)N1CCOCC1 | inactive | 
20 | Cc1ccc(NC(=O)C2=CN3CCS(=O)(=O)N=C3C=C2)cc1 | inconclusive: 1.3 µM [rising, full curve, poor fit] | 
21 | CCn1nccc1C(=O)Nc1ccc(S(=O)(=O)NC23CC4CC(CC(C4)C2)C3)cc1 | inconclusive: 18.4 µM [cytotoxic, single point] | 
22 | COc1cccc(CNC(=O)c2cccc(N3CCCS3(=O)=O)c2)c1 | inactive | 
23 | CC(C)(C)OC(=O)N(CCc1ccccc1)Cc1cccc(OCc2cccc(NC(=O)C3CCC3)c2)c1 | inconclusive: 23.1 µM [cytotoxic, single point] | 

Row | Structure (SMILES) | Potency | activity change, negative = cytotoxic
24 | C=CCNC(=O)c1ccc(-n2cccc2)cc1 | inactive | 
25 | CC1=Nc2cc(Cl)ccc2Oc2ccccc21 | inactive | 
26 | CC/C(=N/Nc1ccccc1)c1cnnc(-c2ccccc2)n1 | inconclusive: 32.6 µM [cytotoxic, single point] | 
27 | COC(=O)c1sc(N)c(C(=O)OC)c1COC(=O)c1c(C)noc1C | active: 5.17 µM | 
28 | CCCC1C(=O)Nc2ccccc2N1C(=O)c1cccc(C)c1 (stereo not given) | inconclusive: 0.116 µM [cytotoxic, full curve, poor fit] | 
29 | COc1ccccc1CSc1ncc(-c2ccc([N+](=O)[O-])cc2)[nH]1 | inconclusive: 32.6 µM [cytotoxic, single point] | 
30 | CC1CCc2c(sc(NC(=O)CN3CCN(C(=O)c4ccco4)CC3)c2C#N)C1 (stereo not given) | inactive | 
31 | Cc1cc(C)c(NC(=O)c2cc(C)nc3c2c(C)nn3-c2cccc(F)c2)c(C)c1 | inactive | 
32 | CCn1c(Cn2nnc(-c3ccccc3)n2)nnc1SCC(=O)Nc1cccc(C)c1C | inactive | 
33 | S=C(NCc1ccccc1)Nc1nccs1 | inactive | 
34 | O=C(CC1CCCCC1)Nc1ccc(-c2ccc3nncn3n2)cc1 | inconclusive: 29.1 µM [cytotoxic, single point] | 
35 | Cc1ccc(C(=O)N(CCc2ccccc2)Cc2ccccc2)cc1S(=O)(=O)N1CCOCC1 | inconclusive: 20.6 µM [cytotoxic, partial curve] | 
36 | O=C(COc1ccc(C(=O)c2ccccc2)cc1)NC1CCCCC1 | inactive | 
37 | COc1cccc2c1O/C(=N\O)C(C(=O)Nc1ccc(C)cc1)C2 (stereo not given) | active: 4.11 µM | 
38 | O=C(Nc1ccc(Oc2ccc(NC(=O)Nc3ccccc3Cl)cc2)cc1)Nc1ccccc1Cl | inconclusive: 32.6 µM [cytotoxic, partial curve, poor fit] | 
39 | NC(=O)CCN(C1CCCCC1)S(=O)(=O)c1cccc2nsnc12 | inactive | 
40 | Cc1ccc(NC(=O)Cc2csc(-c3ccccc3)n2)cc1F | inactive | 
41 | Cc1ccc(-c2nnn(CC(=O)N(CC(=O)NC3CCCCC3)c3ccc(F)c(Cl)c3)n2)o1 | inconclusive: 29.1 µM [cytotoxic, single point] | 
42 | COc1ccc(Cn2c(C(=O)O)c(CNCc3ccco3)c3ccc(C)cc32)cc1 | inconclusive: 16.4 µM [cytotoxic, partial curve, poor fit] | 
43 | C/C(=N\Nc1nc2ccccc2[nH]1)c1ccc2c(c1)OCCO2 | inconclusive: 8.2 µM [rising, partial curve, poor fit] | 
44 | CC(Nc1nc(-c2cccnc2)nc2ccccc12)c1ccc(F)cc1 (stereo not given) | inconclusive: 29.1 µM [cytotoxic, single point] | 
45 | COc1ccc(CN2CCN(CC(O)Cn3c4ccccc4c4ccccc43)CC2)cc1 (stereo not given) | inconclusive: 29.1 µM [cytotoxic, single point] | 

Compounds shown so far that contain a nitro group on carbon (2):
Row | Structure (SMILES) | Potency | activity change, negative = cytotoxic
5 | COc1cc([N+](=O)[O-])ccc1NC(=S)Nc1cc(C(=O)OC(C)C)cc(C(=O)OC(C)C)c1 | inconclusive: 18.4 µM [cytotoxic, single point] | 
29 | COc1ccccc1CSc1ncc(-c2ccc([N+](=O)[O-])cc2)[nH]1 | inconclusive: 32.6 µM [cytotoxic, single point] | 
